# The supplement of paper PMC8728848
# The list shows a part of the results.
# What was measured:
# Test in all cases: glycan array binding signal (z-score within array); higher = stronger binding
# Details in all cases: glycan notation: IUPAC condensed, linker removed
# [1] = molecular target: GlcNAc(b1-2)[GlcNAc(b1-4)]Man(a1-3)[GlcNAc(b1-4)][GlcNAc(b1-2)Man(a1-6)]Man(b1-4)GlcNAc(b1-4)GlcNAc
# Method in brief: (§1)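 Glycan array data came from 3228 arrays in the Consortium for Functional Glycomics database, and only arrays with an available protein sequence were kept. Glycan names were put into IUPAC-condensed notation, and columns mapping to the same glycan were averaged. The binding signal is a within-array Z-score, averaged across arrays of one protein sequence run at different concentrations or buffers and across linkers. A negative Z-score can be read as non-binding.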
# [2] = molecular target: GlcNAc(b1-2)[GlcNAc(b1-4)]Man(a1-3)[GlcNAc(b1-4)][GlcNAc(b1-2)[GlcNAc(b1-6)]Man(a1-6)]Man(b1-4)GlcNAc(b1-4)GlcNAc
# Method in brief: as §1
# [3] = molecular target: GlcNAc(b1-2)[GlcNAc(b1-4)]Man(a1-3)[GlcNAc(b1-4)][GlcNAc(b1-2)[GlcNAc(b1-6)]Man(a1-6)]Man(b1-4)GlcNAc(b1-4)[Fuc(a1-6)]GlcNAc
# Method in brief: as §1
# [4] = molecular target: GlcNAc(b1-2)[GlcNAc(b1-6)]Man(a1-6)[GlcNAc(b1-2)Man(a1-3)]Man(b1-4)GlcNAc(b1-4)GlcNAc
# Method in brief: as §1
# [5] = molecular target: GlcNAc(b1-2)[GlcNAc(b1-6)]Man(a1-6)[GlcNAc(b1-2)Man(a1-3)]Man(b1-4)GlcNAc(b1-4)[Fuc(a1-6)]GlcNAc
# Method in brief: as §1
# [6] = molecular target: GlcNAc(b1-2)[GlcNAc(b1-6)]Man(a1-6)[GlcNAc(b1-4)][GlcNAc(b1-2)Man(a1-3)]Man(b1-4)GlcNAc(b1-4)GlcNAc
# Method in brief: as §1
# [7] = molecular target: GlcNAc(b1-3)Fuc
# Method in brief: as §1
# [8] = molecular target: GlcNAc(b1-3)Gal
# Method in brief: as §1
# [9] = molecular target: GlcNAc(b1-3)Gal(b1-3)GalNAc
# Method in brief: as §1
# [10] = molecular target: GlcNAc(b1-3)Gal(b1-4)Glc
# Method in brief: as §1
# [11] = molecular target: GlcNAc(b1-3)Gal(b1-4)GlcNAc
# Method in brief: as §1
# [12] = molecular target: GlcNAc(b1-3)Gal(b1-4)GlcNAc(b1-2)Man(a1-3)[GlcNAc(b1-3)Gal(b1-4)GlcNAc(b1-2)Man(a1-6)]Man(b1-4)GlcNAc(b1-4)GlcNAc
# Method in brief: as §1
# [13] = molecular target: GlcNAc(b1-3)Gal(b1-4)GlcNAc(b1-2)Man(a1-3)[GlcNAc(b1-3)Gal(b1-4)GlcNAc(b1-2)Man(a1-6)]Man(b1-4)GlcNAc(b1-4)[Fuc(a1-6)]GlcNAc
# Method in brief: as §1
# [14] = molecular target: GlcNAc(b1-3)Gal(b1-4)GlcNAc(b1-2)[GlcNAc(b1-3)Gal(b1-4)GlcNAc(b1-6)]Man(a1-6)[GlcNAc(b1-3)Gal(b1-4)GlcNAc(b1-2)Man(a1-3)]Man(b1-4)GlcNAc(b1-4)GlcNAc
# Method in brief: as §1
# [15] = molecular target: GlcNAc(b1-3)Gal(b1-4)GlcNAc(b1-3)Gal(b1-4)GlcNAc
# Method in brief: as §1
# [16] = molecular target: GlcNAc(b1-3)Gal(b1-4)GlcNAc(b1-3)Gal(b1-4)GlcNAc(b1-2)Man(a1-3)[GlcNAc(b1-3)Gal(b1-4)GlcNAc(b1-3)Gal(b1-4)GlcNAc(b1-2)Man(a1-6)]Man(b1-4)GlcNAc(b1-4)GlcNAc
# Method in brief: as §1
# [17] = molecular target: GlcNAc(b1-3)Gal(b1-4)GlcNAc(b1-3)Gal(b1-4)GlcNAc(b1-2)Man(a1-3)[GlcNAc(b1-3)Gal(b1-4)GlcNAc(b1-3)Gal(b1-4)GlcNAc(b1-2)Man(a1-6)]Man(b1-4)GlcNAc(b1-4)[Fuc(a1-6)]GlcNAc
# Method in brief: as §1
# [18] = molecular target: GlcNAc(b1-3)Gal(b1-4)GlcNAc(b1-3)Gal(b1-4)GlcNAc(b1-2)[GlcNAc(b1-3)Gal(b1-4)GlcNAc(b1-3)Gal(b1-4)GlcNAc(b1-6)]Man(a1-6)[GlcNAc(b1-3)Gal(b1-4)GlcNAc(b1-3)Gal(b1-4)GlcNAc(b1-2)Man(a1-3)]Man(b1-4)GlcNAc(b1-4)[Fuc(a1-6)]GlcNAc
# Method in brief: as §1
# [19] = molecular target: GlcNAc(b1-3)Gal(b1-4)GlcNAc(b1-3)Gal(b1-4)GlcNAc(b1-3)Gal(b1-4)GlcNAc(b1-2)Man(a1-3)[GlcNAc(b1-3)Gal(b1-4)GlcNAc(b1-3)Gal(b1-4)GlcNAc(b1-3)Gal(b1-4)GlcNAc(b1-2)Man(a1-6)]Man(b1-4)GlcNAc(b1-4)GlcNAc
# Method in brief: as §1
binder,measurement,setting,value
"AT5G24760(45) (Arabidopsis thaliana), Q8LEB2 (protein) MSASSSSFEQPQVITCNAAVAWRAGEPLVMEEVEVSPPQPLEIRIKVVCTSLCRSDLSAWESQSLLPRIFGHEAAGIVESIGEGVTEFEKGDHVLAVFTGECGSCRHCISGKSNMCQVLGMERKGLMHSDQKTRFSIKGKPVYHYCAVSSFSEYTVVHSGCAVKVDPLAPLHKICLLSCGVAAGLGAAWNVADVQKGSSVVIFGLGTVGLSVAQGAKLRGAAQILGVDINPAKAEQAKTFGVTDFINSNDLSEPIPQVIKRMTGGGADFSFECVGDTGIATTALQSCSDGWGMTVTLGVPKAKPEVSAHYGLFLSGKSLKGTLFGGWKPKSDLPSLIDKYMNKEIMIDEFITHNLSFDEINKAFVLMREGKCLRCVLHMPK",glycan array binding signal (z-score),[1],-0.932
same,glycan array binding signal (z-score),[2],0.154
same,glycan array binding signal (z-score),[3],-0.6
same,glycan array binding signal (z-score),[4],-0.081
same,glycan array binding signal (z-score),[5],-0.197
same,glycan array binding signal (z-score),[6],-1.02
same,glycan array binding signal (z-score),[7],-0.77
same,glycan array binding signal (z-score),[8],-0.714
same,glycan array binding signal (z-score),[9],-0.073
same,glycan array binding signal (z-score),[10],-0.961
same,glycan array binding signal (z-score),[11],0.839
same,glycan array binding signal (z-score),[12],-0.073
same,glycan array binding signal (z-score),[13],1.7
same,glycan array binding signal (z-score),[14],0.138
same,glycan array binding signal (z-score),[15],0.089
same,glycan array binding signal (z-score),[16],1.14
same,glycan array binding signal (z-score),[17],-0.185
same,glycan array binding signal (z-score),[18],0.498
same,glycan array binding signal (z-score),[19],0.23

# Exported with tabs: part of the list above.
binder	measurement	setting	value
AT5G24760(45) (Arabidopsis thaliana), Q8LEB2 (protein) MSASSSSFEQPQVITCNAAVAWRAGEPLVMEEVEVSPPQPLEIRIKVVCTSLCRSDLSAWESQSLLPRIFGHEAAGIVESIGEGVTEFEKGDHVLAVFTGECGSCRHCISGKSNMCQVLGMERKGLMHSDQKTRFSIKGKPVYHYCAVSSFSEYTVVHSGCAVKVDPLAPLHKICLLSCGVAAGLGAAWNVADVQKGSSVVIFGLGTVGLSVAQGAKLRGAAQILGVDINPAKAEQAKTFGVTDFINSNDLSEPIPQVIKRMTGGGADFSFECVGDTGIATTALQSCSDGWGMTVTLGVPKAKPEVSAHYGLFLSGKSLKGTLFGGWKPKSDLPSLIDKYMNKEIMIDEFITHNLSFDEINKAFVLMREGKCLRCVLHMPK	glycan array binding signal (z-score)	[15]	0.089
same	glycan array binding signal (z-score)	[16]	1.14
